# PubChem BioAssay AID1259405, NCATS | 2018
# Aim: 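Mouse-designed siRNAs used to find CHO productivity engineering targets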 (primary screen)
# System: Chinese hamster CHO-K1 ovary cells with stable secreted eGFP expression
# Reagent: single siRNA against mouse genes, 0.8 pmol siRNA per well (2 µl of 400 nM stock)
# Duration: 3 days
# Detection: 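Per-well intracellular GFP measured by laser scanning cytometry, plus viability from ATP luminescence, each relative to plate median of non-targeting control wells, in %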
# Scale: GFP, % of control: higher = more GFP per well, higher productivity; viability (ATP), % of control: higher = more viable cells (more ATP)
# Call rule: 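Called active when intracellular GFP, relative to negative control, is at or above 120%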
# In all, the deposit lists about 50,000 reagents; below is an unselected part. About 4,000 of all reagents (8%) count as active. 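Mouse siRNA library applied to hamster cells; one well for each siRNA.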 The numbers tell different reagents against one gene apart.
gene,siRNA no.,"GFP, % of control","viability (ATP), % of control",Outcome
Cfap61,1,86.5,80.7,inactive
Cfap61,2,84.3,46.5,inactive
Cfap61,3,69.1,88.8,inactive
2410002F23Rik,1,70.1,77.5,inactive
2410002F23Rik,2,81.6,75.4,inactive
2410002F23Rik,3,89.6,84.5,inactive
Fbp1,1,53.5,29.2,inactive
Fbp1,2,62.1,72.6,inactive
Fbp1,3,69.8,73,inactive
Or6c219,1,110,83.6,inactive
Or6c219,2,139,58,active
Or6c219,3,87.3,90.1,inactive
Ltbp3,1,175,113,active
Ltbp3,2,50.8,75.9,inactive
5330416C01Rik,1,102,62.4,inactive
5330416C01Rik,2,67.3,74.5,inactive
5330416C01Rik,3,80.6,107,inactive
Grk5,1,133,105,active
Mmgt2,1,51.3,61,inactive
Mmgt2,2,84.3,87.4,inactive
Mmgt2,3,91.7,103,inactive
Aamp,1,60.5,49.4,inactive
Aamp,2,148,96.4,active
Aamp,3,92.8,89.9,inactive
Sec24a,1,43.3,63.8,inactive
Sec24a,2,41.9,45.1,inactive
Sec24a,3,56.2,70.7,inactive
Ccnt2,1,131,71.6,active
Ccnt2,2,65.8,68.3,inactive
Ccnt2,3,111,114,inactive

Quoted from the entries so far (3 entries):
gene,siRNA no.,"GFP, % of control","viability (ATP), % of control",Outcome
Grk5,1,133,105,active
Mmgt2,1,51.3,61,inactive
Mmgt2,2,84.3,87.4,inactive

More entries:
gene,siRNA no.,"GFP, % of control","viability (ATP), % of control",Outcome
Gpr183,1,121,84.1,active
Gpr183,2,118,63.3,inactive
Gpr183,3,53.9,68.3,inactive
Fabp9,1,46.2,51.8,inactive
Fabp9,2,78.6,65.1,inactive
Fabp9,3,185,61.4,active
Tprkb,1,123,65.2,active
Tprkb,2,14,21.1,inactive
Tprkb,3,85.8,108,inactive
Pzp2,1,58.9,51.9,inactive
Pzp2,2,75.9,61,inactive
Pzp2,3,63.6,92.3,inactive
Rusf1,1,80.7,42.4,inactive
Rusf1,2,43.7,55.4,inactive
Rusf1,3,105,83.4,inactive
Trim27,1,70.8,86.4,inactive
Trim27,2,66.4,82.4,inactive
Trim27,3,89.7,102,inactive
Gria1,1,67.5,95.2,inactive
Gria1,2,50.5,42,inactive
Gria1,3,63.9,57.9,inactive
Afm,1,90.7,102,inactive
Afm,2,86.3,121,inactive
Afm,3,91.4,66.3,inactive
Abhd5,1,78,53,inactive
Abhd5,2,121,86,active
Abhd5,3,49.9,46.4,inactive
Sorbs3,1,70.5,60.5,inactive
Sorbs3,2,52.5,69,inactive
Sorbs3,3,47.8,67.5,inactive
Cep70,1,63.3,58,inactive
Cep70,2,63.5,82.1,inactive
Cep70,3,59.4,66,inactive
Plin5,1,86.4,47.4,inactive
Plin5,2,103,96.2,inactive
Plin5,3,66.9,77.3,inactive
Pramel26,1,94.6,55.1,inactive
Pramel26,2,64.3,48,inactive
Pramel26,3,88.9,71.4,inactive
1700049L16Rik,1,85.1,68.9,inactive
1700049L16Rik,2,120,73.8,inactive
1700049L16Rik,3,43.1,58.8,inactive
Hpcal1,1,66.9,64.6,inactive
Hpcal1,2,57.2,68.3,inactive
Hpcal1,3,79.6,79.2,inactive
Rph3a,1,20.2,25.6,inactive
Rph3a,2,64.4,41.8,inactive
Rph3a,3,56.6,64.9,inactive
Ugt2b38,1,71.5,61.1,inactive
Ugt2b38,2,80.4,66.2,inactive
Ugt2b38,3,62.1,50.8,inactive
Rpn2,1,88.1,110,inactive
Rpn2,2,90.9,109,inactive
Rpn2,3,83.2,98.2,inactive
